Columns and labels:
Assay type in all cases: in vivo, Male Swiss OF-1 mice
dizocilpine-treated mice [1] = assay: spontaneous alternation in the Y-maze, dizocilpine-induced amnesia model
dizocilpine-treated mice [2] = assay: step-through passive avoidance, dizocilpine-induced amnesia model
dizocilpine-treated mice [3] = assay: dizocilpine-induced learning deficits, statements covering both tests (Y-maze and passive avoidance); conditions: for interaction by combination index: combination of low doses with PRE-084; for interaction by CIs: combination with DHEAS
Experimental: Experiments were conducted to determine the dose-response effects of fenfluramine (FEN) and norfenfluramine (NOR), racemate and (+)- and (−)-isomers, in an in vivo mouse model; the dizocilpine-induced amnesia model (described below) is used to test responses to drugs acting at the sigma-1 receptor (S1R) (Maurice et al., 1994a,b; Maurice, et al., 1998, Neuroscience 83:413-428).
The drugs were administered intraperitoneally (“ip” or “IP”) with dizocilpine (0.15 mg/kg) and tested in the spontaneous alternation test on day 1 and in the passive avoidance test on days 2-3.
The apparatus consisted of a 2-compartment box, with one illuminated with white polyvinylchloride (PVC) walls and a transparent cover (15×20×15 cm high), one with black polyvinylchloride walls and cover (15×20×15 cm high), and a grid floor. A guillotine door separated each compartment. A 60 W lamp was positioned 40 cm above the apparatus lit the white compartment during the experimental period. Scrambled foot shocks (0.3 mA for 3 s) were delivered to the grid floor using a shock generator scrambler (Lafayette Instruments, Lafayette, Mass., USA). The guillotine door was initially closed during the training session. Each mouse was placed into the white compartment. After 5 s, the door was raised. When the mouse entered the darkened compartment and placed all its paws on the grid floor, the door was gently closed and the 3-scrambled foot shock was delivered for 3 s. The step-through latency, i.e., the latency spent to enter the dark compartment, and the level of sensitivity to the shock were recorded. The latter was evaluated as: 0=no sign; 1=flinching reactions; 2=flinching and vocalization reactions. The retention test was carried out 24 h after training. Each mouse was placed again into the white compartment. After 5 s, the door was raised. The step-through latency was recorded up to 300 s. Animals entered the darkened compartment or were gently pushed into it and the escape latency, i.e., the time spent to return into the white compartment, was also measured up to 300 s. Results were expressed as median and interquartile (25%-75%) range.
The Y-maze is made of grey PVC. Each arm is 40 cm long, 13 cm high, 3 cm wide at the bottom, 10 cm wide at the top, and converged at an equal angle. Each mouse was placed at the end of one arm and allowed to move freely through the maze during an 8-min session. The series of arm entries, including possible returns into the same arm, were checked visually. An alternation was defined as entries into all three arms on consecutive occasions. The number of maximum alternations was therefore the total number of arm entries minus two and the percentage of alternation was calculated as: actual alternations/maximum alternations)×100. Parameters included the percentage of alternation (memory index) and total number of arm entries (exploration index).

| Structure (SMILES) | interaction by CI, Y-maze assay (dizocilpine-treated mice [1]; combination with PRE-084) | interaction by CI, passive avoidance assay (dizocilpine-treated mice [2]; combination with PRE-084) | interaction by combination index (dizocilpine-treated mice [3]) | interaction by CIs, both spontaneous alternation and passive avoidance (dizocilpine-treated mice [3]; combination of the lowest doses with DHEAS) | interaction by CIs (dizocilpine-treated mice [3]) | interaction by CIs, all responses (dizocilpine-treated mice [3]; combination with PREGS) | interaction by CIs, spontaneous alternation test (dizocilpine-treated mice [1]; combination with PREGS) | interaction by CIs, passive avoidance response (dizocilpine-treated mice [2]; combination with PREGS) |
| --- | --- | --- | --- | --- | --- | --- | --- | --- |
| CCN[C@H](C)Cc1cccc(C(F)(F)F)c1 [(−)-Fenfluramine, (2R)-N-ethyl-1-[3-(trifluoromethyl)phenyl]propan-2-amine] | antagonistic effect | additive effect |  |  |  |  |  |  |
| CCN[C@@H](C)Cc1cccc(C(F)(F)F)c1 [(+)-Fenfluramine, (2S)-N-ethyl-1-[3-(trifluoromethyl)phenyl]propan-2-amine] |  |  | synergistic effects | synergistic | additive or synergistic effects | additive or synergistic effects |  |  |
| CCNC(C)Cc1cccc(C(F)(F)F)c1 (racemic) [Fenfluramine, (RS)—N-ethyl-1-[3-(trifluoromethyl)phenyl]propan-2-amine] |  |  | synergistic effects |  | additive or synergistic effects |  | additive or synergistic effect | but not in the passive avoidance response |

— patent US20210401776A1, “METHOD OF TREATING […] SYNDROMES USING FENFLURAMINE ENANTIOMERS” (ZOGENIX INTERNATIONAL LIMITED, priority 2018, published 2021)
